Measurements: PubChem BioAssay AID540303 (National Center for Advancing Translational Sciences (NCATS), 2011)
Several values for one entry are separate records, joined by “and”; a condition that tells them apart may be missing. Equal entries are not always repeated. Out of some 330,000 compounds screened, about 1,000 (0.3%) were called active. Inconclusive results, whose numbers are uncertain, are shown with a selection of clear calls. The call rests on the fitted dose curve; in most records, active means well fitted inhibition curve with a large enough effect; inconclusive means small, poorly fitted or top-dose-only effect; inactive means no such curve, though single readings can be large or run the other way; tested in mouse RAW 264.7 cells. Potencies beside an inconclusive call are fits to weak or partial responses and may not hold up.

test: qHTS for Inhibitors of Cell Surface uPA Generation; conditions: cell surface uPA generation assay; series mostly up to 38.3 µM; further: nearly all actives have a fitted effect of over 55% in size
Procedure, shortened: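 Murine RAW 264.7 cells are treated for 24 h with compound up to 38.3 uM final. Cell ATP, measured by ATP-Lite, remains high if blocking the uPA cascade prevents LF from reaching the cytoplasm.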
Potency means the concentration at half of the fitted maximal effect.

Q: Which Potency does the source give for `O=C(Nc1ccccc1O)c1ccc([N+](=O)[O-])cc1` here?
A: inconclusive: 12.6 µM [inhibitor, partial curve, poor fit]

Q: For `CC(C)(C)[C@H]1COC(=O)[C@@H](Cc2ccc(F)cc2)C/C=C\C[C@@H](CC(=O)N[C@@H](CO)Cc2ccccc2)C(=O)N1`, which Potency is on record?
A: inconclusive: 12.6 µM [inhibitor, single point]

Q: For `COCCN(C(=O)C1CC(=O)N(Cc2ccccc2)C1)c1nc(-c2ccc([N+](=O)[O-])cc2)cs1` (stereo not given), which Potency is on record?
A: inconclusive: 8.91 µM [inhibitor, single point]

Q: For `Cc1ccc(NC(=O)Cc2nc(COC(=O)Cc3cccc(C(F)(F)F)c3)cs2)cc1`, which Potency is on record?
A: inactive

Q: Which Potency does the source give for `COc1ccc(OC)c(/C=N/NC(=O)CCc2c(C)n[nH]c2C)c1` here?
A: inactive

Q: For `O=c1oc2ccccc2nc1/C=C(\O)c1ccccc1`, which Potency is on record?
A: active: 2.24 µM

Q: With `CC(C)C(=O)Nc1ccc2c(c1)Cc1cc(NC(=O)C(C)C)ccc1-2` as the compound, how does the Potency read?
A: inconclusive: 1 µM [inhibitor, full curve, poor fit]

Q: Which Potency does the source give for `Cn1c(=O)c2[nH]c(=O)cnc2n(C)c1=S` here?
A: inactive

Q: With `CCOC(=O)c1[nH]c(C)c(C(=O)Nc2ccc(C)cc2C)c1C` as the compound, how does the Potency read?
A: active: 2.51 µM

Q: For `Cc1nn(-c2ccccc2)c(Cl)c1C(=O)NNC(=O)c1ccccc1O`, which Potency is on record?
A: inconclusive: 0.501 µM [inhibitor, full curve, poor fit]

Q: With `Cc1ccc(C(=O)N2CCN(c3ncccn3)CC2)cc1S(=O)(=O)N1CCCCC1` as the compound, how does the Potency read?
A: inconclusive: 3.16 µM [inhibitor, partial curve, poor fit]

Q: For `Oc1ccc(/C=N/N2CCN(Cc3ccccc3)CC2)cc1`, which Potency is on record?
A: inconclusive: 22.4 µM [inhibitor, partial curve, poor fit]

Q: With `CC(C)(C)c1ccc(C(=O)NCCc2ccccc2)cc1` as the compound, how does the Potency read?
A: inconclusive: 7.94 µM [inhibitor, partial curve, poor fit]

Q: With `CC1Nc2ncnc(N3CCc4ccccc4C3)c2N(Cc2ccc(Br)cc2)C1=O` (stereo not given) as the compound, how does the Potency read?
A: inconclusive: 28.2 µM [inhibitor, single point]

Q: With `O=C(O)CCCN1C(=O)/C(=C\c2ccco2)SC1=S` as the compound, how does the Potency read?
A: inactive

Q: For `COc1cccc(-c2cc(C(=O)NCc3ccco3)c3ccccc3n2)c1`, which Potency is on record?
A: inactive

Q: Which Potency does the source give for `CC1CCC(CN2C(Nc3ccccc3)=NC[C@@H]2Cc2ccccc2)CC1` (stereo not given in full) here?
A: inactive

Q: With `COc1ccc(NS(=O)(=O)c2ccc3oc(SC(C)C(N)=O)nc3c2)cc1` (stereo not given) as the compound, how does the Potency read?
A: inconclusive: 3.16 µM [inhibitor, full curve, poor fit]

Q: Which Potency does the source give for `COC(=O)CSc1nnc(NC(=O)c2ccc3c(c2)OCO3)s1` here?
A: inconclusive: 0.891 µM [inhibitor, full curve, poor fit]

Q: Which Potency does the source give for `Cc1ccc(C(=O)c2oc3ccc(Cl)cc3c2NC(=O)CN2CCN(C)CC2)cc1` here?
A: inconclusive: 12.6 µM [inhibitor, single point]

Q: Which Potency does the source give for `NC(=O)c1ccc(-c2noc(-c3ccccc3F)n2)cc1` here?
A: inactive

Q: For `CN(C)C1=NC[C@H](Cc2ccccc2)N1CCCC1CCCCC1`, which Potency is on record?
A: inconclusive: 11.2 µM [inhibitor, partial curve, poor fit]

Q: For `COc1ccc(NS(=O)(=O)c2cccc(C(=O)OCC(=O)N3CCN(c4ccc(OC)cc4)CC3)c2)cc1`, which Potency is on record?
A: inconclusive: 8.91 µM [inhibitor, single point]

Q: Which Potency does the source give for `O=[N+]([O-])c1cc(S(=O)(=O)NC2=NCCCCC2)ccc1NCC1CCCCC1` here?
A: inconclusive: 12.6 µM [inhibitor, single point]

Q: With `O=C(NC1CCN(C(=S)Nc2ccccc2Cl)CC1)C1CCCCC1` as the compound, how does the Potency read?
A: inactive

Q: Which Potency does the source give for `COc1cccc(C(=O)N[C@@H](C)C(=O)N2CCC3(CC2)NCCc2[nH]cnc23)c1` here?
A: inactive

Q: With `Cc1ccc(N/C(C(Cl)=C(Cl)Cl)=C(/Cl)[N+](=O)[O-])c(C)c1` as the compound, how does the Potency read?
A: inconclusive: 11.2 µM [inhibitor, partial curve, poor fit]

Q: Which Potency does the source give for `COc1ccc(NS(=O)(=O)c2cc(NC(=O)[C@@H](NC(N)=O)C(C)C)ccc2C)cc1` here?
A: inconclusive: 7.94 µM [inhibitor, single point]

Q: For `CC(C)C[C@@H](CSc1ccccc1)N1CCN(CCc2ccccc2)CCC1=O`, which Potency is on record?
A: inconclusive: 12.6 µM [inhibitor, single point]

Q: Which Potency does the source give for `O=C(CN1CCN(Cc2ccccc2)CC1)Nc1ccc([N+](=O)[O-])cc1C(=O)Nc1ccccc1F` here?
A: inconclusive: 10 µM [inhibitor, single point]

Q: With `COCCN(Cc1nc(-c2ccc(-c3ccccc3)cc2)oc1C)C(C)C` as the compound, how does the Potency read?
A: inconclusive: 28.2 µM [inhibitor, single point]

Q: With `CCC[C@@H](CN1CCC[C@H]1CN1C(N)=NC[C@@H]1Cc1ccccc1)N1C[C@@H]([C@H](C)CC)N(CCCC2CCCC2)C1=N` as the compound, how does the Potency read?
A: inconclusive: 12.6 µM [inhibitor, single point]

Q: For `OC1CCCN(Cc2ccc3ccc4cccc5ccc2c3c45)C1` (stereo not given), which Potency is on record?
A: inconclusive: 12.6 µM [inhibitor, single point]

Q: For `C=CC(=O)Nc1cccc(N(C)c2ccnc(Nc3ccc(N4CCN(C)CC4)cc3)n2)c1`, which Potency is on record?
A: active: 10 µM

Q: With `Cn1nnc(NC(=S)NC(=O)c2cc(Cl)ccc2Cl)n1` as the compound, how does the Potency read?
A: inactive

Q: With `CC1CCCCC12NC(=O)N(CC(=O)Nc1ccc(N3CCCCC3)cc1)C2=O` (stereo not given) as the compound, how does the Potency read?
A: inconclusive: 0.0891 µM [inhibitor, full curve, poor fit]

Q: For `COc1cccc2c1C(CCCC(=O)O)CCC2` (stereo not given), which Potency is on record?
A: inactive

Q: For `CCOc1ccc(C(=O)Nc2cc(NC(=O)c3ccc(OCC)c(Cl)c3)cc(C(=O)O)c2)cc1Cl`, which Potency is on record?
A: inactive

Q: Which Potency does the source give for `CCOc1ccc(Oc2ccccc2NC(=O)CSCC(=O)Nc2cc(C)on2)cc1` here?
A: inactive

Q: For `CC(C)C[C@@H](CSc1ccc(Br)cc1)N1CCN(CCc2ccccc2)CCC1=O`, which Potency is on record?
A: inconclusive: 28.2 µM [inhibitor, single point]

Q: With `CCNc1nc(NCC)n2c(SCC(=O)c3ccccc3F)nnc2n1` as the compound, how does the Potency read?
A: inconclusive: 2.24 µM [inhibitor, partial curve, poor fit]

Q: With `NC(=NCCCCCCN=C(N)/N=C(\N)Nc1ccc(Cl)cc1)/N=C(\N)Nc1ccc(Cl)cc1` as the compound, how does the Potency read?
A: inconclusive: 11.2 µM [inhibitor, single point] and inconclusive: 10 µM [inhibitor, single point]

Q: Which Potency does the source give for `CN(C)c1ccc(C(=O)OCC(=O)NC2CCCCCC2)cc1` here?
A: inactive

Q: With `CCCCN(C(=O)NC(=O)Nc1nc2ccc(OC)cc2s1)S(C)(=O)=O` as the compound, how does the Potency read?
A: inconclusive: 5.01 µM [inhibitor, partial curve]

Q: Which Potency does the source give for `Cc1ccc(NC(=O)C2CCCN2C(=O)OCc2ccccc2)c(O)c1` (stereo not given) here?
A: inconclusive: 3.55 µM [inhibitor, partial curve, poor fit]

Q: With `Cc1ccc(S(=O)(=O)NC(CC(=O)O)c2cccs2)cc1` (stereo not given) as the compound, how does the Potency read?
A: inconclusive: 0.0126 µM [inhibitor, full curve, poor fit]

Q: For `CNC(=O)c1ccsc1NC(=O)c1ccc(S(=O)(=O)N2CCCc3ccccc32)cc1`, which Potency is on record?
A: inconclusive: 10 µM [inhibitor, partial curve, poor fit]

Q: For `COc1cc2cnc(-c3ccccc3)c(-c3cc(OC)c(OC)c(OC)c3)c2cc1OC`, which Potency is on record?
A: inconclusive: 12.6 µM [inhibitor, single point]

Q: Which Potency does the source give for `NS(=O)(=O)c1ccc(NC(=S)N2CCN(Cc3ccc4c(c3)OCO4)CC2)cc1` here?
A: inactive

Q: With `Cc1ccc2c(c1)CN1CN2Cc2cc(C)ccc21` as the compound, how does the Potency read?
A: inactive

Q: Which Potency does the source give for `CCc1ccc(C(=O)CN2CCSC2=N)cc1` here?
A: inconclusive: 11.2 µM [inhibitor, partial curve, poor fit]

Q: For `CC/C(C)=N/Nc1cccc([N+](=O)[O-])c1`, which Potency is on record?
A: inconclusive: 28.2 µM [inhibitor, single point]

Q: For `O=C(O)COc1ccc(/C=N/Nc2nc(Nc3ccccc3)nc(N3CCCCC3)n2)cc1`, which Potency is on record?
A: inactive

Q: For `COc1cc2c(cc1OC)C(C)N(C(=O)c1cc(Cl)nc(Cl)c1)CC2` (stereo not given), which Potency is on record?
A: inconclusive: 3.16 µM [inhibitor, partial curve, poor fit]

Q: With `COC(=O)c1ccsc1NC(=O)CCS(=O)(=O)c1ccc(Cl)cc1` as the compound, how does the Potency read?
A: inconclusive: 10 µM [inhibitor, partial curve]

Q: For `CCCn1c(SCC(=O)NC(=O)NCc2ccccc2)n[nH]c1=O`, which Potency is on record?
A: inactive

Q: With `COc1ccc(C(=O)NCCc2ccccc2)cc1OC` as the compound, how does the Potency read?
A: inconclusive: 0.0158 µM [inhibitor, full curve, poor fit]

Q: With `CCS(=O)(=O)Nc1ccc(C2=NN(C(=O)c3ccco3)C(c3ccco3)C2)cc1` (stereo not given) as the compound, how does the Potency read?
A: inconclusive: 2.24 µM [inhibitor, full curve, poor fit]

Q: Which Potency does the source give for `O=C(Nc1ccc(Nc2ccccc2)cc1)c1cc([N+](=O)[O-])ccc1Cl` here?
A: inconclusive: 10 µM [inhibitor, single point]

Q: Which Potency does the source give for `c1ccc(C2[C@H]3CN(Cc4cccnc4)[C@H](c4ccccc4)C34CC2(c2cccnc2)C4)cc1` (stereo not given in full) here?
A: inconclusive: 22.4 µM [inhibitor, single point]

Q: Which Potency does the source give for `O=C(Nc1nccs1)c1ccc(-c2ccc(Cl)cc2)o1` here?
A: inconclusive: 3.98 µM [inhibitor, partial curve, poor fit]

Q: With `O=C(c1ccc(Cl)c(S(=O)(=O)N2CCCCCC2)c1)N1CCN(c2ccc(O)cc2)CC1` as the compound, how does the Potency read?
A: inconclusive: 11.2 µM [inhibitor, partial curve]

Q: With `Cc1ccc2ccc(C(Nc3cccc(C(F)(F)F)c3)c3cccnc3)c(O)c2n1` (stereo not given) as the compound, how does the Potency read?
A: inconclusive: 10 µM [inhibitor, single point]

Q: Which Potency does the source give for `COc1cc(-c2nc3ccccn3c2NCc2ccccc2)ccc1SC1CCCCC1` here?
A: inconclusive: 11.2 µM [inhibitor, single point]

Q: With `O=C(Nc1ccc2[nH]ncc2c1)c1ccccc1` as the compound, how does the Potency read?
A: inconclusive: 7.94 µM [inhibitor, partial curve, poor fit]
